Results published in paper PMC5062617, “Nop9 is a PUF-like protein that prevents premature cleavage to correctly process pre-18S rRNA”.
pKd: −log10 of the molar value. Where a protein sequence is shown, tags need not be part of it.

Target: T1, Nop9 (46-645) (Saccharomyces cerevisiae) (UniProt P47077)
T1 sequence (looked up): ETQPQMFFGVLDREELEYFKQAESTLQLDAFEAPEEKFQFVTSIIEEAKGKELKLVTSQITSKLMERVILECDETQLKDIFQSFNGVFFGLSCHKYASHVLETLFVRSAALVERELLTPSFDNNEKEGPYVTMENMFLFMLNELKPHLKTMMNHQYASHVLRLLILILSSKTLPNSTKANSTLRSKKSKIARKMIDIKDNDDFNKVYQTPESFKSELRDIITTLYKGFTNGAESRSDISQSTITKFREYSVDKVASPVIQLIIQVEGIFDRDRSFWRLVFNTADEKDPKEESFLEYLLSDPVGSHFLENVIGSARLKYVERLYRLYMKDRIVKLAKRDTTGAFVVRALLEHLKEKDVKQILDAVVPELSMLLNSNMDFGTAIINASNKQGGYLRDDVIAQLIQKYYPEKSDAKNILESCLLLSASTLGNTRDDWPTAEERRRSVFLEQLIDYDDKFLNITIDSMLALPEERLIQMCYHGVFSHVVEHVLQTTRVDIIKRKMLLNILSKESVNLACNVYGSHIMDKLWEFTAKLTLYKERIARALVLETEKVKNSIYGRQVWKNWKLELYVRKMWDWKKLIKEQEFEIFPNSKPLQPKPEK
Test: EMSA
Settings: EMSA: 10 mM HEPES, 150 mM NaCl, 0.01% Tween-20, 0.1 mg/ml BSA, 1 mM TCEP, 4 °C, 40 min, RNA <50 pM, recombinant protein, residues 46-645, label: 5' 32P

## AAGAAAUUUAAUAAUU [Subdomain A 1-16]
  pKd: < 6.00

## GGUUGAAAAUGGAUUUUUUUGUUUUAUAGGACAAUUAAAACCGUUUCAA [Subdomain A Δ5'1-16]
Letters put together from the description
  pKd: < 6.00
